The whole screen tested about 140,000 compounds, of which about 4,300 (3.1%) were called active. Inconclusive results, whose numbers are uncertain, are shown with a selection of clear calls.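 The calls were made as follows: active = readout at or below -70, meaning at least 70% loss of cells showing the perinucleolar compartment, a nuclear body marking cancer cells; inconclusive = readout between -30 and a set limit; inactive = the rest.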
assay: High Content Assay for Compounds that inhibit the Assembly of the Perinucleolar Compartment; conditions: PC3M PTB-GFP, PNC prevalence imaging, 16 h; at 10 µM; hits give low values;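 also: plate controls were DMSO wells for no effect and camptothecin positive control wells for full effect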
How it was run: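 PC3M cells stably expressing PTB-GFP, 750–1000 cells/well, treated 16 h at 37 °C with compound (23 nl of library stock), in duplicate. After paraformaldehyde fixation and Hoechst stain, imaged at 20x; PNC prevalence scored by image analysis.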

**Q.** Which activity change (PNC), negative = inhibition does the source give for `COCCNC(=S)N1CCc2cc(OC)c(OC)cc2C1COc1ccc(C(C)C)cc1` (centres undefined) here?
**A.** inconclusive: -41.7%

**Q.** Which activity change (PNC), negative = inhibition does the source give for `CCOC(=O)C1CCCN(C(=O)CN2C(=O)c3ccccc3C2=O)C1` (centres undefined) here?
**A.** inconclusive: -32.7%

**Q.** With `CC(NC(=O)NCC1CCCO1)(C(F)(F)F)C(F)(F)F` (centres undefined) as the molecule, how does the activity change (PNC), negative = inhibition read?
**A.** inconclusive: -70.9%

**Q.** For `Cc1c(O)c(=O)ccn1C`, which activity change (PNC), negative = inhibition is on record?
**A.** inconclusive: -69.3%

**Q.** For `Cc1ccc(NC(=O)CCN2C(=O)CSC2=O)cc1`, which activity change (PNC), negative = inhibition is on record?
**A.** inactive: -16.6%

**Q.** With `CSc1nnc(-c2cnccn2)n1CCCN1CCCC1=O` as the molecule, how does the activity change (PNC), negative = inhibition read?
**A.** inactive: 3.91%

**Q.** For `Cn1c(CCNC(=O)c2ccco2)nc2cc(NC(=O)NC3CCCCC3)ccc21`, which activity change (PNC), negative = inhibition is on record?
**A.** inconclusive: -45.1%

**Q.** With `COc1ccccc1CN(Cc1nc2ccccc2c(=O)[nH]1)S(=O)(=O)c1ccc2ccccc2c1` as the molecule, how does the activity change (PNC), negative = inhibition read?
**A.** inactive: 20.7%

**Q.** For `CCC(C)Sc1nc2c(c(=O)[nH]c(=O)n2C)n1Cc1ccccc1Cl` (centres undefined), which activity change (PNC), negative = inhibition is on record?
**A.** inactive: 1.93%

**Q.** For `O=C(NCc1ccco1)c1ccc(C(=O)NCc2ccco2)s1`, which activity change (PNC), negative = inhibition is on record?
**A.** inconclusive: -53.9%

**Q.** Which activity change (PNC), negative = inhibition does the source give for `Cc1ccc(C(=O)NC(=S)N2CCN(c3ccc([N+](=O)[O-])cc3)CC2)cc1` here?
**A.** inactive: -4.79%

**Q.** With `CON/C=C(\C=Nc1ccc(Cl)cc1)c1ncc(C(F)(F)F)cc1Cl` as the molecule, how does the activity change (PNC), negative = inhibition read?
**A.** inconclusive: -44.5%

**Q.** For `CCc1nnc(NC(=O)c2ccc(S(=O)(=O)NCC(C)C)cc2)s1`, which activity change (PNC), negative = inhibition is on record?
**A.** inconclusive: -49.4%

**Q.** For `C/C(O)=C(\C#N)c1nc2ccccc2[nH]1`, which activity change (PNC), negative = inhibition is on record?
**A.** inconclusive: -61.9%

**Q.** With `CNC(=O)CCc1nc(-c2ccc(C(C)(C)C)cc2)no1` as the molecule, how does the activity change (PNC), negative = inhibition read?
**A.** inactive: -9.74%

**Q.** Which activity change (PNC), negative = inhibition does the source give for `O=C(c1ccc(F)cc1)N1CCCCC(S(=O)(=O)c2ccccc2)C1=O` (centres undefined) here?
**A.** inconclusive: -53.6%

**Q.** Which activity change (PNC), negative = inhibition does the source give for `CCN(CC)S(=O)(=O)c1cccc(NC(=O)c2cc3ccccc3o2)c1` here?
**A.** inactive: 9.48%

**Q.** For `Cn1cc(C(=O)N/N=C/c2cccs2)c2ccccc21`, which activity change (PNC), negative = inhibition is on record?
**A.** inconclusive: -37.7%

**Q.** For `c1ccc(-c2ccc(C3=Nn4c(Cn5nnc6ccccc65)nnc4SC3)cc2)cc1`, which activity change (PNC), negative = inhibition is on record?
**A.** inactive: -5.8%

**Q.** Which activity change (PNC), negative = inhibition does the source give for `Cc1ccc(S(=O)(=O)CC(=O)c2ccc(C(C)(C)C)cc2)cc1` here?
**A.** inconclusive: -35.5%

**Q.** For `CC(=O)Nc1ccc(Nc2cc(C)nc3c(-c4ccccc4)cnn23)cc1`, which activity change (PNC), negative = inhibition is on record?
**A.** inconclusive: -54.3%

**Q.** For `CCCCCCC(=O)Nc1c(O)c2ccccc2[nH]c1=O`, which activity change (PNC), negative = inhibition is on record?
**A.** inconclusive: -31.4%

**Q.** With `CC1(C)C(=O)Nc2ccccc2N1C(=O)COC(=O)C1CCCCC1` as the molecule, how does the activity change (PNC), negative = inhibition read?
**A.** inactive: -6.07%

**Q.** With `Fc1ccc(CSc2nnc(-c3cccnc3)n2Cc2ccco2)cc1` as the molecule, how does the activity change (PNC), negative = inhibition read?
**A.** inactive: -7.59%

**Q.** For `O=C(C1CC=CCC1)N1CCN(C(=O)C2CC=CCC2)CC1` (centres undefined), which activity change (PNC), negative = inhibition is on record?
**A.** inconclusive: -38.6%

**Q.** With `Nc1ccc(N2CCCCCC2)cc1` as the molecule, how does the activity change (PNC), negative = inhibition read?
**A.** inconclusive: -36.1%

**Q.** Which activity change (PNC), negative = inhibition does the source give for `CN(C)CC/C=C1\c2ccccc2Sc2ccc(Cl)cc21` here?
**A.** inactive: 71.6%

**Q.** For `Cc1ccccc1OCC(=O)NCC(=O)N/N=C/c1ccc(Br)o1`, which activity change (PNC), negative = inhibition is on record?
**A.** active: -114%

**Q.** Which activity change (PNC), negative = inhibition does the source give for `CCOc1cccc(N2C(=O)CC(N(CCc3ccc(OC)c(OC)c3)C(=O)CC)C2=O)c1` (centres undefined) here?
**A.** inconclusive: -61%

**Q.** For `O=C(CC(CC(=O)c1ccccc1)C(=O)O)c1ccccc1`, which activity change (PNC), negative = inhibition is on record?
**A.** inconclusive: -31.2%

**Q.** With `COc1cccc(-c2nn(-c3ccccc3)cc2C(=O)Nc2nccs2)c1` as the molecule, how does the activity change (PNC), negative = inhibition read?
**A.** inconclusive: -42%

**Q.** For `COc1cc(C)nc(Nc2nc(C)c(C(C)=O)s2)n1`, which activity change (PNC), negative = inhibition is on record?
**A.** inactive: 16.7%

**Q.** With `O=C(Oc1ccc(Br)cc1C(=S)N1CCCCC1)c1cc([N+](=O)[O-])cc([N+](=O)[O-])c1` as the molecule, how does the activity change (PNC), negative = inhibition read?
**A.** inactive: 13.6%

**Q.** Which activity change (PNC), negative = inhibition does the source give for `Oc1ccccc1/C=N/NC1=NCCCCC1` here?
**A.** inactive: -18.6%

**Q.** Which activity change (PNC), negative = inhibition does the source give for `CCC(C)(C)n1nnnc1C(C(C)C)N1CCN(C)CC1` (centres undefined) here?
**A.** inconclusive: -72.4%

**Q.** Which activity change (PNC), negative = inhibition does the source give for `COCCN1C(=O)c2ccc(C(=O)O)cc2C1=O` here?
**A.** inactive: 19.8%

**Q.** With `Cc1cccc(OCCNc2cc(N3CCN(C)CC3)ccc2[N+](=O)[O-])c1` as the molecule, how does the activity change (PNC), negative = inhibition read?
**A.** inactive: 8.08%

**Q.** Which activity change (PNC), negative = inhibition does the source give for `CC(=NCCN1CCNCC1)C1=C(O)CC(C)(C)CC1=O` here?
**A.** inconclusive: -34.1%

**Q.** With `Cc1ccc(-c2nnc(CSc3nnc4c5c(C)c(C)sc5nc(C(C)C)n34)o2)cc1` as the molecule, how does the activity change (PNC), negative = inhibition read?
**A.** inconclusive: -36.5%

**Q.** For `OCCNCc1cc(Br)ccc1OCc1ccc(Cl)cc1`, which activity change (PNC), negative = inhibition is on record?
**A.** inconclusive: -36.8%

**Q.** Which activity change (PNC), negative = inhibition does the source give for `COC(=O)c1ccc(Cl)c(NC(=O)CN(c2ccc3c(c2)OCO3)S(C)(=O)=O)c1` here?
**A.** inconclusive: -49.7%

**Q.** For `COc1ccc(Cl)cc1NC(=S)N1CCN(c2ccccn2)CC1`, which activity change (PNC), negative = inhibition is on record?
**A.** inactive: -5.79%

**Q.** Which activity change (PNC), negative = inhibition does the source give for `CNc1ccc(Br)cc(C(=O)/C=C/c2cccc(OC)c2)c1=O` here?
**A.** inactive: -15.1%

**Q.** For `O=C(CN(c1ccccc1)S(=O)(=O)c1ccccc1)N1CCN(Cc2ccc3c(c2)OCO3)CC1`, which activity change (PNC), negative = inhibition is on record?
**A.** active: -87.8%

**Q.** For `Cc1ccc(C(NC(=O)c2ccccc2)C(Cl)Cl)cc1` (centres undefined), which activity change (PNC), negative = inhibition is on record?
**A.** inconclusive: -64.8%

**Q.** Which activity change (PNC), negative = inhibition does the source give for `CC(=O)Nc1ccc(S(=O)(=O)Nc2cccc(NC(=O)C(C)(C)C)c2)cc1` here?
**A.** inconclusive: -68.4%

**Q.** For `CC1C(C(=O)Nc2ccccc2)CCCC1(C)C(=O)O` (centres undefined), which activity change (PNC), negative = inhibition is on record?
**A.** inconclusive: -47.3%

**Q.** With `CN(C)C(=O)N1CCCC(C(=O)NCCc2ccccc2)C1` (centres undefined) as the molecule, how does the activity change (PNC), negative = inhibition read?
**A.** inactive: 9.48%

**Q.** Which activity change (PNC), negative = inhibition does the source give for `O=C1CN(C(=O)COC(=O)c2ccccc2NCc2ccco2)c2ccccc2N1` here?
**A.** inconclusive: -47.3%

**Q.** Which activity change (PNC), negative = inhibition does the source give for `N/C(=N\OC(=O)c1ccc([N+](=O)[O-])cc1)c1cccnc1` here?
**A.** inactive: 19.1%

**Q.** For `CS(=O)(=O)N1CCC(c2noc(-c3ccc(C(F)(F)F)cc3)n2)CC1`, which activity change (PNC), negative = inhibition is on record?
**A.** inconclusive: -55.3%

**Q.** With `O=C(CCNC(=O)c1ccccc1)Nc1ccc(F)c(Cl)c1` as the molecule, how does the activity change (PNC), negative = inhibition read?
**A.** inconclusive: -59%

**Q.** For `CCCC12CN3CCN(CC(C3)/C1=N\NC(=O)c1ccccc1N)C2`, which activity change (PNC), negative = inhibition is on record?
**A.** inactive: -4.95%

**Q.** With `COc1ccccc1-c1nnc(NC(=O)c2ccc3ncsc3c2)o1` as the molecule, how does the activity change (PNC), negative = inhibition read?
**A.** active: -121%

**Q.** With `Cc1cccc(C(=O)NC(=S)Nc2ccc(Cc3ccncc3)cc2)c1` as the molecule, how does the activity change (PNC), negative = inhibition read?
**A.** inactive: 49.4%

**Q.** For `CC1CCCN(C(=O)CCCn2c(=S)[nH]c3ccccc3c2=O)C1` (centres undefined), which activity change (PNC), negative = inhibition is on record?
**A.** inconclusive: -58.4%

**Q.** For `CCOC(=O)c1sc(=S)n(-c2ccc(Cl)cc2)c1SC`, which activity change (PNC), negative = inhibition is on record?
**A.** inactive: 55.5%

**Q.** With `O=c1[nH]ncn1-c1cccc(C(F)(F)F)c1` as the molecule, how does the activity change (PNC), negative = inhibition read?
**A.** active: -106%

**Q.** For `Cc1onc(-c2ccccc2Cl)c1C(=O)OCn1nnc2ccccc2c1=O`, which activity change (PNC), negative = inhibition is on record?
**A.** inconclusive: -35.5%
